No constants are given. Whether binding was seen depends on the method and setting. Some binding calls cover weakened binding; strength is not graded here.
T1: EC1 deletion mutant of human CDH6 (human) (UniProt P55285)
T1 sequence: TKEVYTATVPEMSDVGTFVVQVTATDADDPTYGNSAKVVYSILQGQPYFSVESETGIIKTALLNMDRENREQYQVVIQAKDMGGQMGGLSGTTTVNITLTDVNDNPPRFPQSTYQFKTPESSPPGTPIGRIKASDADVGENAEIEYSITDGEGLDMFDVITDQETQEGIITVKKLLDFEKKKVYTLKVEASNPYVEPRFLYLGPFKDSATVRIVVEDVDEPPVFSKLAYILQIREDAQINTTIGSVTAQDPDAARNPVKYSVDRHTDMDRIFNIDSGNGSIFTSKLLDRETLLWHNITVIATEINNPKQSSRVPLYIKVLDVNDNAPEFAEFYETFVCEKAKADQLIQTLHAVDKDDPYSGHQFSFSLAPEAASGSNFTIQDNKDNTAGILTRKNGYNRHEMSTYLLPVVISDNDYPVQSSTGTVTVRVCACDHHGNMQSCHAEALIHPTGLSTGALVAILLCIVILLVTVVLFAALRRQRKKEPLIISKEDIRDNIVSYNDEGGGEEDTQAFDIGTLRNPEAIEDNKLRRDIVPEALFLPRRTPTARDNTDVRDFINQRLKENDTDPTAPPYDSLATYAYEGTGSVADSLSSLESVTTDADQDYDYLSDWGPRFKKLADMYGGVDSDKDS

T2: EC2 deletion mutant of human CDH6 (human) (UniProt P55285)
T2 sequence: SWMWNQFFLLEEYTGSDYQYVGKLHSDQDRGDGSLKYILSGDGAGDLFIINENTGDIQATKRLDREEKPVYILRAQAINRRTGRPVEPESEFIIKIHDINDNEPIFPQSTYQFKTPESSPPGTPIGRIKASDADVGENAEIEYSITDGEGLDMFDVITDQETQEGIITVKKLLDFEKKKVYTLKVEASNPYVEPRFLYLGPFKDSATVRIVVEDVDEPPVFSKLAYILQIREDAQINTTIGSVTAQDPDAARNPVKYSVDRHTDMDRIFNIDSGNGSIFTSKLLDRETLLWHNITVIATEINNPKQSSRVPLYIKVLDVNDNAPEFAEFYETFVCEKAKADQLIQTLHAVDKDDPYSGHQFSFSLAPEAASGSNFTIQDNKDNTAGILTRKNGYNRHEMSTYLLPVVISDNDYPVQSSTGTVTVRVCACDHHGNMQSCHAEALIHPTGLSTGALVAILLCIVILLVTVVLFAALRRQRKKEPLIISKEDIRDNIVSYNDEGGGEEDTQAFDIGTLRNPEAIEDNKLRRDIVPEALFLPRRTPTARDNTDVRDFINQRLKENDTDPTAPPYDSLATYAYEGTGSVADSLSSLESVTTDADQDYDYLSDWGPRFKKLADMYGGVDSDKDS

T3: EC4 deletion mutant of human CDH6 (human) (UniProt P55285)
T3 sequence: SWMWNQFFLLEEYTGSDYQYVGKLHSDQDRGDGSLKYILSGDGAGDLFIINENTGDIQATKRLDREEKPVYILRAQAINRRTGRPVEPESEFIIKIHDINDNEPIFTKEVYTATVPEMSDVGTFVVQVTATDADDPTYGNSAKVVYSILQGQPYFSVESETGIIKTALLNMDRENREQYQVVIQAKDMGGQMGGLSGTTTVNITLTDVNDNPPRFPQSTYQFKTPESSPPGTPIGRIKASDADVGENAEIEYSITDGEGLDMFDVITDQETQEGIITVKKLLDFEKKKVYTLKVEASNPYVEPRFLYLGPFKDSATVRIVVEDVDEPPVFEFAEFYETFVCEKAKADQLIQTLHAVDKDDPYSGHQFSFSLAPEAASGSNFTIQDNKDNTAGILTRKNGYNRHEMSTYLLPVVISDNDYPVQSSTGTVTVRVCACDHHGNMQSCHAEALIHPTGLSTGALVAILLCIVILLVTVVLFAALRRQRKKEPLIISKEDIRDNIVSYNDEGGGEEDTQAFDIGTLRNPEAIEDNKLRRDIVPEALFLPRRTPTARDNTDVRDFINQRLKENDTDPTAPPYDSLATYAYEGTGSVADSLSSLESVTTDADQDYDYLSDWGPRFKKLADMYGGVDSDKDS

T4: EC5 deletion mutant of human CDH6 (human) (UniProt P55285)
T4 sequence: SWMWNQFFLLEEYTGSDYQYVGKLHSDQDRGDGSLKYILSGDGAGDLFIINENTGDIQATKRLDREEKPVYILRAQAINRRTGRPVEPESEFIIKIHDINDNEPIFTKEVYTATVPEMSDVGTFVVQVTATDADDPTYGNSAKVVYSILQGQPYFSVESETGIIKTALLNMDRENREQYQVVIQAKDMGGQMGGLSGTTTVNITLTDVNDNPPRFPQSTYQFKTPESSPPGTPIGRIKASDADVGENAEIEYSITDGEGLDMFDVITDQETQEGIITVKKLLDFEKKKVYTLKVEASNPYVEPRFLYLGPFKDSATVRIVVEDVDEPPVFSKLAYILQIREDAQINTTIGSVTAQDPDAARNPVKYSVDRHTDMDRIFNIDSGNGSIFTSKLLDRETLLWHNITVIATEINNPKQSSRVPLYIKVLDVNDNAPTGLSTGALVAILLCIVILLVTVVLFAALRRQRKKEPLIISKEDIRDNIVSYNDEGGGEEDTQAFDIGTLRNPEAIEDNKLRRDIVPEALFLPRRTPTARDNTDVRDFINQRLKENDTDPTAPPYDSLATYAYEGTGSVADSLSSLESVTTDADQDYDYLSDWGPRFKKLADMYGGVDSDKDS


Tests used:
[1] = biological target: T1, EC1 deletion mutant of human CDH6 (human); experiment: flow cytometry, transfected 293α cells
[2] = biological target: T2, EC2 deletion mutant of human CDH6 (human); experiment: flow cytometry, transfected 293α cells
[3] = biological target: T3, EC4 deletion mutant of human CDH6 (human); experiment: flow cytometry, transfected 293α cells
[4] = biological target: T4, EC5 deletion mutant of human CDH6 (human); experiment: flow cytometry, transfected 293α cells
[5] = biological target: T1, EC1 deletion mutant of human CDH6 (human); experiment: flow cytometry; 293α cells transfected with EC1-deleted hCDH6 (open) vs untransfected control cells (shaded); APC anti-human IgG
[6] = biological target: T2, EC2 deletion mutant of human CDH6 (human); experiment: flow cytometry; 293α cells transfected with EC2-deleted hCDH6 (open) vs untransfected control cells (shaded); APC anti-human IgG
[7] = biological target: T3, EC4 deletion mutant of human CDH6 (human); experiment: flow cytometry; 293α cells transfected with EC4-deleted hCDH6 (open) vs untransfected control cells (shaded); APC anti-human IgG
[8] = biological target: T4, EC5 deletion mutant of human CDH6 (human); experiment: flow cytometry; 293α cells transfected with EC5-deleted hCDH6 (open) vs untransfected control cells (shaded); APC anti-human IgG
[9] = biological target: T1, EC1 deletion mutant of human CDH6 (human); experiment: flow cytometry, transfected 293α cells, 20 nM antibody
[10] = biological target: T2, EC2 deletion mutant of human CDH6 (human); experiment: as above
[11] = biological target: T3, EC4 deletion mutant of human CDH6 (human); experiment: as above
[12] = biological target: T4, EC5 deletion mutant of human CDH6 (human); experiment: as above
[13] = biological target: T1, EC1 deletion mutant of human CDH6 (human); experiment: flow cytometry; 293α cells transfected with EC1-deleted hCDH6 (open) vs untransfected control cells (shaded); antibody 20 nM; anti-rat IgG-FITC
[14] = biological target: T2, EC2 deletion mutant of human CDH6 (human); experiment: flow cytometry; 293α cells transfected with EC2-deleted hCDH6 (open) vs untransfected control cells (shaded); antibody 20 nM; anti-rat IgG-FITC
[15] = biological target: T3, EC4 deletion mutant of human CDH6 (human); experiment: flow cytometry; 293α cells transfected with EC4-deleted hCDH6 (open) vs untransfected control cells (shaded); antibody 20 nM; anti-rat IgG-FITC
[16] = biological target: T4, EC5 deletion mutant of human CDH6 (human); experiment: flow cytometry; 293α cells transfected with EC5-deleted hCDH6 (open) vs untransfected control cells (shaded); antibody 20 nM; anti-rat IgG-FITC

| binding [1] | binding [2] | binding [3] | binding [4] | binding [5] | binding [6] | binding [7] | binding [8] | binding [9] | binding [10] | binding [11] | binding [12] | binding [13] | binding [14] | binding [15] | binding [16] | Binder |
| --- | --- | --- | --- | --- | --- | --- | --- | --- | --- | --- | --- | --- | --- | --- | --- | --- |
| – | – | – | – | – | – | – | – | binds | binds | binds | binds | binds | binds | binds | binds | rG055 antibody (antibody, V domains shown) VH: EVQLQESGPGLVRPSQSLSLSCSVTDYSITSNYWGWIRRFPGNKMEWMGYITYSGYTSYNPSLQSRISITRDTSKNQFFLQLNSVTAEDTATYYCARSINHGGYSYVVDAWGPGASVTVSS VL: DVQMTHSPSYLAASPGESVSISCKTSKNISNYLVWYQQKPGEAYKLLIYSGSTLQSGTPSRFSGSGSGTDFTLTIRSLEPEDFGLYFCQQYYEKPFTFGSGTKLEIKR |
| – | – | – | – | – | – | – | – | binds | binds | binds | binds | binds | binds | binds | binds | rG061 antibody (antibody, V domains shown) VH: EVQLQESGPGLVKPSQSLSLTCSVTGYSITTYYWGWIRKFPGNKMEWMGYISYSGRTSYNPSLKSRMSITRDASKNQFFLQLNSVTTDDTATYYCARSPINHGGYWYFDFWGPGTMVTVSS VL: DVQMTQSPSYLAASPGESVSISCKATKSISNYLAWYQQKPGEAYKVLIYSGSTLQSGTPSRFSGSGSGTDFTLTIRSLEPEDFGLYSCQQYYEKPLTFGSGTKLEIKR |
| – | – | – | – | – | – | – | – | binds | binds | binds | binds | binds | binds | binds | binds | rG056 antibody (antibody, V domains shown) VH: EVQLQESGPGLVKPSQSLSLTCSVTDYSITTYFWGWIRKFPGNKMEWMGYMSYRGGTSYNPSLKSRISITRDTSKNQFFLQLNSVTTEDTATYYCARCPNYGGHSLVFDYWGQGVMVTVSS VL: DVQMTQSPSSLAASPGESVSISCRATKSIGIYLAWYQQKPGKTFKLLIYSGSTLQSGTPSRFSGSGSGTDFTLTIRSLEPEDFGLYFCQQFYENPFTFGSGTKLEIRR |

The remaining lines, values behind:

| Binder | binding [1] | binding [2] | binding [3] | binding [4] | binding [5] | binding [6] | binding [7] | binding [8] | binding [9] | binding [10] | binding [11] | binding [12] | binding [13] | binding [14] | binding [15] | binding [16] |
| --- | --- | --- | --- | --- | --- | --- | --- | --- | --- | --- | --- | --- | --- | --- | --- | --- |
| H02L02 antibody (antibody, human IgG1, kappa, V domains shown) VH: EVQLVQSGAEVKKPGASVKVSCKASGYTFTRNFMHWVRQAPGQGLEWMGWIYPGDGETEYNQKFQGRVTITADRSTSTAYMELSSLRSEDTAVYFCARGVYGGFAGGYFDFWGQGTLVTVSS VL: DIQMTQSPSSLSASVGDRVTITCKASQNIYKNLAWYQQKPGKAPKLLIYDANTLQTGVPSRFSGSGSGSDFTLTISSLQPEDFATYFCQQYYSGWAFGQGTKVEIKR | binds | binds | binds | binds | binds | binds | binds | binds | – | – | – | – | – | – | – | – |
| H02L03 antibody (antibody, human IgG1, kappa, V domains shown) VH: EVQLVQSGAEVKKPGASVKVSCKASGYTFTRNFMHWVRQAPGQGLEWMGWIYPGDGETEYNQKFQGRVTITADRSTSTAYMELSSLRSEDTAVYFCARGVYGGFAGGYFDFWGQGTLVTVSS VL: DIQMTQSPSSLSASVGDRVTITCKASQNIYKNLAWYQQKLGEGPKLLIYDANTLQTGVPSRFSGSGSGTDFTLTISSLQPEDFATYYCQQYYSGWAFGQGTKVEIKR | binds | binds | binds | binds | binds | binds | binds | binds | – | – | – | – | – | – | – | – |
| rG019 antibody (antibody, V domains shown) VH: QVQLQQSGAELVKPGSSVKISCKASGYTFTRNFMHWIKQQPGNGLEWIGWIYCGDGETEYNQKFNGKATLTADRSSSTAYMELSRLTSEDSAVYFCARGVYGGFAGGYFDFWGQGVMVTVSS VL: DIQMTQSPSLLSASVGDRVTLNCKASQNIYKNLAWYQQKLGEGPKLLIYDANTLQTGIPSRFSGSGSGSDFTLTISSLQPEDVATYFCQQYYSGWAFGGVTNLELKRA | – | – | – | – | – | – | – | – | binds | binds | binds | binds | binds | binds | binds | binds |
